# Data from PubChem BioAssay AID853 (Columbia University Molecular Screening Center, 2007).
# Screen size: about 47,000 compounds; about 200 (0.43%) were called active. Inconclusive means that the source gave no clear call. Such entries were picked first, then a sample of the others.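 Rule for the calls: active = inhibition of aggregate fluorescence above about 70%, also judged a hit by eye on the cell image (limit read from the data, passing the limit was not always enough); inconclusive = no rule stated for this call; inactive = not judged a hit on image review.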
# Test: clearance of mutant huntingtin inclusions, primary screen, imaging, HeLa Exon1htt(103Q)mCFP, confocal imaging (AID 853);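 note: cells exposed to compound for three days before fixation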
# Details: aggregate imaging, at 1.5 µM, stronger effect = higher value, zero = plate's median compound well
row,SMILES,inhibition
1,COc1cccc(C(c2nnnn2Cc2ccc(F)cc2)N2CCC(C(N)=O)CC2)c1OC (configuration not stated),inconclusive: 84.2%
2,CCc1nnc(NC(=O)C2CCN(c3nc(C)cc(C)n3)CC2)s1,inconclusive: 73.3%
3,Clc1ccc(OCc2nnc(-c3ccccc3Br)o2)c(Cl)c1,inactive: 27.8%
4,c1ccc(-c2cc3n(c2)CCc2ccccc2-3)cc1,inconclusive: 80.7%
5,C=CCn1c(COc2ccccc2)nnc1SCc1ccc(C#N)cc1,inactive: 54.2%
6,CC(NS(=O)(=O)c1ccc(Cl)cc1)C(c1cccs1)N1CCN(C)CC1 (configuration not stated),active: 77.3%
7,Cc1nc2ccc(Br)cn2c1NC(C)(C)C,inconclusive: 77.2%
8,CN(C)c1ccc(-c2nn3c(C4CCCCC4)nnc3s2)cc1,inactive: 4.8%
9,CCOc1ccc(NC(=O)CCC(=O)n2nc(C)cc2C)cc1,active: 79.1%
10,Cc1nc2sc(C(c3ccc(Cl)cc3)N3CC(C)OC(C)C3)c(O)n2n1 (configuration not stated),inconclusive: 90%
11,CC(C)CCNC(=O)Cn1c(NCCC(C)C)nc2c1c(=O)n(C)c(=O)n2C,inactive: 9.1%
12,CN1CCN(C2=C(Cl)C(=O)N(Cc3ccccc3)C2=O)CC1,inactive: 8.8%
13,O=C1CC(NC23CC4CC(CC(C4)C2)C3)C(=O)N1c1ccc2c(c1)OCO2 (configuration not stated),inactive: 5.1%
14,CCCSc1nc2c(cnn2-c2ccc(F)cc2)c(=O)[nH]1,inconclusive: 88.6%
15,S=c1[nH]nc(-c2ccc(Br)cc2)n1Cc1ccco1,active: 72.3%
16,COc1c(S(=O)(=O)N2CCCC2)ccc(Cl)c1Cl,inconclusive: 71.7%
17,Nn1c(=O)c2ccccc2n2c(SCc3ccccc3)nnc12,active: 80.4%
18,COc1ccccc1-c1noc(-c2ccncc2)n1,inactive: 44.6%
19,CCOC(=O)c1c(C)[nH]c(C(=O)OCC(=O)N2c3ccccc3CC2C)c1C (configuration not stated),inconclusive: 77.2%
20,Cc1cc(C)c(C#N)c(SCc2ccc(C#N)cc2)n1,inactive: 15%
21,Cn1nnc2cc(C(=O)N3CCN(c4ccccc4)CC3)ccc21,active: 79.6%
22,CCOC(=O)c1cc(-c2ccccc2)sc1NC(=O)c1ccc(OC)cc1,inactive: 25.9%
23,Cc1cnc(NC(=O)CSc2nnc(-c3ccccc3)o2)s1,inconclusive: 71.3%
24,COc1ccccc1NC(=O)N(Cc1ccco1)Cc1cc2cccc(C)c2[nH]c1=O,inconclusive: 71.7%
25,CCOc1ccc(Br)cc1CC(=O)O,active: 74.9%

row,SMILES,inhibition
1,O=C(CSc1nnnn1C1CCCC1)Nc1cccc(NC(=O)c2ccco2)c1,inconclusive: 74.3%
2,COC(=O)c1cc(C(=O)OC)cc(N2C(=O)CC(NNC(=O)c3ccccc3Br)C2=O)c1 (configuration not stated),active: 84.9%
3,Nc1c(S(=O)(=O)c2ccccc2)c2nc3ccccc3nc2n1Cc1ccco1,inactive: -23.4%
4,c1ccc(Nc2ncnc3c2oc2ccccc23)cc1,active: 72.5%
5,COc1cccc(OCc2cc(C3Nc4ccccc4C(=O)N3Cc3ccco3)ccc2OC)c1 (configuration not stated),inactive: 16.7%
6,Nc1nc2n(n1)C(c1cccs1)CC(c1ccc(F)cc1)N2 (configuration not stated),inconclusive: 84.5%
7,Cc1ccc(O)c(/C=N/NC(=O)C2=NNC(c3ccccc3)(c3ccccc3)C2)c1,active: 71.1%
8,O=c1c2ccccc2nnn1CSc1nnc2ccccn12,inactive: -18.4%
9,O=C(Nc1ccc(N2CCOCC2)cc1)C1CC1,inactive: 22.9%
10,O=C(Cn1nnc(-c2ccccc2Cl)n1)N1CCN(S(=O)(=O)c2ccc(Cl)cc2)CC1,active: 76.3%
11,Cc1scc(C(=O)N/N=C/c2ccco2)c1C,inconclusive: 72.2%
12,Cc1cc(NC(=O)CSc2nc(CCC3CCCC3)nc3ccccc23)no1,active: 84.3%
13,O=C(N1CCOCC1)N1CCN(S(=O)(=O)N2CCOCC2)CC1,inconclusive: 80.2%
14,Cc1ccc(C)c(-c2nc3ccc(N)cc3[nH]2)c1,inactive: -6.1%
15,Cc1cc(C(=O)Nc2sc(C)c(C)c2C#N)no1,inconclusive: 70.3%
16,OC1(C(F)(F)F)CC(O)(C(F)(F)F)n2nc(-c3ccccc3)cc2N1 (configuration not stated),inconclusive: 71.6%
17,COc1ccccc1OCC(O)Cn1c(Br)nc2c1c(=O)[nH]c(=O)n2C (configuration not stated),inactive: -17.6%
18,Cc1ccc(CCNC(=O)C2CCCN(S(=O)(=O)c3cnc[nH]3)C2)cc1 (configuration not stated),active: 70.2%
19,CC(=O)c1cccc(NC(=O)c2cccc(S(=O)(=O)N(C)C)c2)c1,inconclusive: 85.7%
20,COc1ccc(C2NC(=O)NC(C)=C2C(C)=O)cc1 (configuration not stated),inconclusive: 85.8%
21,Cc1ccc(C)n1-c1ccc(N2CCOCC2)cc1,active: 96.9%
22,Cc1nc(CCNC(=O)COc2ccccc2)cs1,active: 73.9%
23,O=C1CCc2nc3sc4c(c3c(=O)n2N1)CCCC4,active: 84%
24,COc1ccc2oc(=O)c(C(=O)N3c4ccccc4CC3C)cc2c1 (configuration not stated),inactive: -25.1%
25,O=S(=O)(Nc1ccc(Cc2ccncc2)cc1)c1ccc(Br)cc1,inactive: 32.2%

row,SMILES,inhibition
1,CC(C)C(=O)N1CCN(c2ccc(NC(=O)c3cccs3)cc2)CC1,active: 78.9%
2,Fc1cccc(Nc2nc3ccccc3n3nnnc23)c1,inactive: -57.4%
3,O=c1c2cnn(-c3ccccc3)c2nc(-c2cccs2)n1-c1ccc(Br)cc1,inactive: -28.3%
4,CC(C)CC(=O)N1CCN(C(=O)c2cccc(F)c2)CC1,inactive: -21.2%
5,CCC(=O)Nc1ccc2oc(-c3cccc(C)c3)nc2c1,inactive: 10.7%
6,CCCCCn1c(Sc2nc3ccccc3s2)nc2c1c(=O)[nH]c(=O)n2C,inactive: -26.4%
7,CCN(CC)CCn1c(NCc2ccc(OC)cc2)nc2ccccc21,active: 85.7%
8,CCCCOC(=O)Nc1cccc(Cl)c1C,inactive: 26.9%
9,CCOC(=O)Cc1csc(NC(=O)c2ccc3c(c2)OCO3)n1,inactive: -19.2%
10,CC(=O)c1ccc(-c2nc3c4ccccc4ccn3c2C(C)=O)o1,inactive: -8.5%
11,Cc1cccc(-c2c3c(=O)n(C)c(=O)n(C)c3c3nnc4ccccc4n23)c1,inactive: 8.1%
12,COc1ccc(CNc2ccc(-c3ccccc3OC)nn2)cc1,inactive: 29.8%
13,CCOC(=O)Cc1csc(SCc2nc3ccccc3c(=O)[nH]2)n1,inconclusive: 85.3%
14,C=CCn1c(NCc2ccc3c(c2)OCO3)nc2ccccc21,inconclusive: 85%
15,CCc1ccccc1NC(=O)Cn1nnc(-c2cccnc2)n1,inactive: 39.9%
16,Cc1cc(C)cc(NC(=O)CSc2nnc(CN3CCOCC3)n2C)c1,inconclusive: 71.7%
17,COc1ccc(C(=O)N2CCN=C2SCc2cccnc2)cc1OC,inactive: -89.7%
18,CCC1C2CN(C(C)=O)CC=C2C(C#N)=C(N)C1(C#N)C#N (configuration not stated),inconclusive: 71.5%
19,COCC(C)NC(=O)c1ccccc1OC(C)=O (configuration not stated),inconclusive: 74.5%
20,Cc1ccc(C(C(=O)NC2CCCC2)N(C(=O)CCC(=O)Nc2cc(C)on2)c2ccccc2)cc1 (configuration not stated),inactive: 2.4%
21,Cc1cc(NC(=O)C2C3C(=O)N(CCC(C)C)C(C(=O)NCc4ccccc4)C34C=CC2(C)O4)no1 (configuration not stated),inactive: 8.9%
22,O=C(c1cccc(F)c1)N1CCCC(C(=O)N2CCCC2)C1 (configuration not stated),inactive: -18.3%
23,COc1cc2c(cc1OC)CN(C(=O)CSc1n[nH]c(N)n1)CC2,inactive: -5.9%
24,CC(=O)Nc1nc(S(=O)(=O)c2ccc(C)cc2)c(Cl)s1,inconclusive: 79.1%
25,O=C(Nc1ccc(-c2nc3cc(Cl)ccc3o2)cc1)C1CCCO1 (configuration not stated),inactive: -84%

row,SMILES,inhibition
1,CCCCN(C(=O)Cn1nnc2ccccc21)C(C(=O)NCCOC)c1cccs1 (configuration not stated),active: 74.5%
2,CCOc1ccc(-c2nc(C#N)c(N3CCOCC3)o2)cc1,inactive: -40.4%
3,Cc1onc(-c2ccccc2Cl)c1C(=O)NCc1ccc(N2CCCC2=O)cc1,inconclusive: 86.9%
4,CCN1CCCC1CN=Cc1c(O)n(-c2ccccc2)c(=O)c2ccccc12 (configuration not stated),inconclusive: 93.1%
5,Oc1ccccc1NCC(O)Cn1ccc2ccccc21 (configuration not stated),inconclusive: 74%
6,COc1cccc(NC(=O)CSc2nc3n[nH]c(C)c3c(=N)n2-c2cccc(OC)c2)c1,inconclusive: 76.1%
7,O=C(/C=C\Nc1cccc(F)c1)c1ccc2c(c1)OCO2,active: 83.6%
8,O=C(CCCC(=O)N(CC(=O)NC1CCCC1)Cc1ccc2c(c1)OCO2)Nc1ccccn1,inactive: 24.1%
9,COc1cccc2c3c(c(C)nc12)CC(C)O3 (configuration not stated),inconclusive: 83.8%
10,CCCc1cc(=O)n2[nH]c(-c3ccccc3)cc2n1,inconclusive: 92.1%
11,COc1ccc(S(=O)(=O)n2nc(OC(=O)c3cccs3)cc2N)cc1,inactive: -24.9%
12,CCOC(=O)N1CCC(NC(=O)c2cc3ccccn3n2)CC1,inactive: 7.2%
13,O=C(Nc1ccc(-c2nc3ccccc3[nH]2)cc1)C1CCCO1 (configuration not stated),inactive: -13.7%
14,Cc1ccc(S(=O)(=O)NCCCOC(=O)Nc2ccncc2)cc1,inactive: 13.9%
15,CCOC(=O)COc1cc(=O)n(CC)c2ccccc12,inconclusive: 80.4%
16,CCOc1ccc(S(=O)(=O)n2nnc3ccccc32)cc1C,active: 74.5%
17,Cc1cccc(Oc2sc(C(=O)c3ccccc3)c(N)c2C#N)c1,inconclusive: 77.2%
18,O=C(CCCOc1ccccc1)n1nnc2ccccc21,inconclusive: 70.3%
19,CCCc1sc(N/N=C/c2ccccn2)nc1-c1ccc(F)cc1,active: 81.9%
20,COc1ccccc1OCC(=O)Nc1oc(-c2ccccc2)c(-c2ccccc2)c1C#N,inactive: -61%
21,Cc1nnc(NC(=O)c2ccc(S(=O)(=O)N(C)Cc3ccccc3)cc2)o1,inactive: 17.2%
22,c1ccc(-c2noc(C3CCCCC3)n2)nc1,inconclusive: 81.7%

# Reformatted: entries from further up.
row | SMILES | inhibition
11 | COc1ccc(S(=O)(=O)n2nc(OC(=O)c3cccs3)cc2N)cc1 | inactive: -24.9%
14 | Cc1ccc(S(=O)(=O)NCCCOC(=O)Nc2ccncc2)cc1 | inactive: 13.9%
15 | CCOC(=O)COc1cc(=O)n(CC)c2ccccc12 | inconclusive: 80.4%
17 | Cc1cccc(Oc2sc(C(=O)c3ccccc3)c(N)c2C#N)c1 | inconclusive: 77.2%
18 | O=C(CCCOc1ccccc1)n1nnc2ccccc21 | inconclusive: 70.3%
